Measured values reported in publication PMC5830631.
Results are given in words; binding and its absence hold for the method and conditions named. Some entries that bind do so weakly or less than the wild type.

Protein sequences, listed by entry. Tags and fused reporters are not part of them. Lines headed by an entry give the natural chain unless they say otherwise; changes in a name come on top. Residues count along the entry.
UniProt Q86T13: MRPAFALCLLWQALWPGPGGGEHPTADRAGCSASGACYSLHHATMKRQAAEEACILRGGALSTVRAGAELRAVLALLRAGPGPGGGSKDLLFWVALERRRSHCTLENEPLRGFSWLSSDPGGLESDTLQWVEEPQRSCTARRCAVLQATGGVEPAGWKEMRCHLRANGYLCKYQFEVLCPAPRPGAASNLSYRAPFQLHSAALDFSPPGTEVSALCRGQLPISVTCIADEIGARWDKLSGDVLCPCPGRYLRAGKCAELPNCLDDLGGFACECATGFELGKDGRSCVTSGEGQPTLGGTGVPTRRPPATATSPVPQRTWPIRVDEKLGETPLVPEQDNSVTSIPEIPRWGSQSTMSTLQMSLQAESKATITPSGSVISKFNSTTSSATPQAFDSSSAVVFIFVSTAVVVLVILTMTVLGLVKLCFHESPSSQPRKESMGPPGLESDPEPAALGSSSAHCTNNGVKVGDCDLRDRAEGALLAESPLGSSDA
extracellular domain of hCLEC14a: residues 22-397 of Q86T13

Target: extracellular domain of hCLEC14a (human) (UniProt Q86T13)
Experiment: ELISA; 0.625 ug hCLEC14a-ECD coated per well; 1 ug hCLEC14a-CTLD-Fc-HRP incubated in the presence or absence of increasing concentrations of deglyco C1 IgG, 2 h, room temperature; TMB, OD 450 nm; both purified

binding: binds
Substance: HRP-conjugated hCLEC14a-CTLD-Fc (from UniProt Q86T13 33-173) (Fc fusion)
